Patent US20100183640A1

Amino acid sequences for entries named in this document (tags omitted). A change or cut given only in a name is not applied to a line headed by its entry.
UniProt P02751: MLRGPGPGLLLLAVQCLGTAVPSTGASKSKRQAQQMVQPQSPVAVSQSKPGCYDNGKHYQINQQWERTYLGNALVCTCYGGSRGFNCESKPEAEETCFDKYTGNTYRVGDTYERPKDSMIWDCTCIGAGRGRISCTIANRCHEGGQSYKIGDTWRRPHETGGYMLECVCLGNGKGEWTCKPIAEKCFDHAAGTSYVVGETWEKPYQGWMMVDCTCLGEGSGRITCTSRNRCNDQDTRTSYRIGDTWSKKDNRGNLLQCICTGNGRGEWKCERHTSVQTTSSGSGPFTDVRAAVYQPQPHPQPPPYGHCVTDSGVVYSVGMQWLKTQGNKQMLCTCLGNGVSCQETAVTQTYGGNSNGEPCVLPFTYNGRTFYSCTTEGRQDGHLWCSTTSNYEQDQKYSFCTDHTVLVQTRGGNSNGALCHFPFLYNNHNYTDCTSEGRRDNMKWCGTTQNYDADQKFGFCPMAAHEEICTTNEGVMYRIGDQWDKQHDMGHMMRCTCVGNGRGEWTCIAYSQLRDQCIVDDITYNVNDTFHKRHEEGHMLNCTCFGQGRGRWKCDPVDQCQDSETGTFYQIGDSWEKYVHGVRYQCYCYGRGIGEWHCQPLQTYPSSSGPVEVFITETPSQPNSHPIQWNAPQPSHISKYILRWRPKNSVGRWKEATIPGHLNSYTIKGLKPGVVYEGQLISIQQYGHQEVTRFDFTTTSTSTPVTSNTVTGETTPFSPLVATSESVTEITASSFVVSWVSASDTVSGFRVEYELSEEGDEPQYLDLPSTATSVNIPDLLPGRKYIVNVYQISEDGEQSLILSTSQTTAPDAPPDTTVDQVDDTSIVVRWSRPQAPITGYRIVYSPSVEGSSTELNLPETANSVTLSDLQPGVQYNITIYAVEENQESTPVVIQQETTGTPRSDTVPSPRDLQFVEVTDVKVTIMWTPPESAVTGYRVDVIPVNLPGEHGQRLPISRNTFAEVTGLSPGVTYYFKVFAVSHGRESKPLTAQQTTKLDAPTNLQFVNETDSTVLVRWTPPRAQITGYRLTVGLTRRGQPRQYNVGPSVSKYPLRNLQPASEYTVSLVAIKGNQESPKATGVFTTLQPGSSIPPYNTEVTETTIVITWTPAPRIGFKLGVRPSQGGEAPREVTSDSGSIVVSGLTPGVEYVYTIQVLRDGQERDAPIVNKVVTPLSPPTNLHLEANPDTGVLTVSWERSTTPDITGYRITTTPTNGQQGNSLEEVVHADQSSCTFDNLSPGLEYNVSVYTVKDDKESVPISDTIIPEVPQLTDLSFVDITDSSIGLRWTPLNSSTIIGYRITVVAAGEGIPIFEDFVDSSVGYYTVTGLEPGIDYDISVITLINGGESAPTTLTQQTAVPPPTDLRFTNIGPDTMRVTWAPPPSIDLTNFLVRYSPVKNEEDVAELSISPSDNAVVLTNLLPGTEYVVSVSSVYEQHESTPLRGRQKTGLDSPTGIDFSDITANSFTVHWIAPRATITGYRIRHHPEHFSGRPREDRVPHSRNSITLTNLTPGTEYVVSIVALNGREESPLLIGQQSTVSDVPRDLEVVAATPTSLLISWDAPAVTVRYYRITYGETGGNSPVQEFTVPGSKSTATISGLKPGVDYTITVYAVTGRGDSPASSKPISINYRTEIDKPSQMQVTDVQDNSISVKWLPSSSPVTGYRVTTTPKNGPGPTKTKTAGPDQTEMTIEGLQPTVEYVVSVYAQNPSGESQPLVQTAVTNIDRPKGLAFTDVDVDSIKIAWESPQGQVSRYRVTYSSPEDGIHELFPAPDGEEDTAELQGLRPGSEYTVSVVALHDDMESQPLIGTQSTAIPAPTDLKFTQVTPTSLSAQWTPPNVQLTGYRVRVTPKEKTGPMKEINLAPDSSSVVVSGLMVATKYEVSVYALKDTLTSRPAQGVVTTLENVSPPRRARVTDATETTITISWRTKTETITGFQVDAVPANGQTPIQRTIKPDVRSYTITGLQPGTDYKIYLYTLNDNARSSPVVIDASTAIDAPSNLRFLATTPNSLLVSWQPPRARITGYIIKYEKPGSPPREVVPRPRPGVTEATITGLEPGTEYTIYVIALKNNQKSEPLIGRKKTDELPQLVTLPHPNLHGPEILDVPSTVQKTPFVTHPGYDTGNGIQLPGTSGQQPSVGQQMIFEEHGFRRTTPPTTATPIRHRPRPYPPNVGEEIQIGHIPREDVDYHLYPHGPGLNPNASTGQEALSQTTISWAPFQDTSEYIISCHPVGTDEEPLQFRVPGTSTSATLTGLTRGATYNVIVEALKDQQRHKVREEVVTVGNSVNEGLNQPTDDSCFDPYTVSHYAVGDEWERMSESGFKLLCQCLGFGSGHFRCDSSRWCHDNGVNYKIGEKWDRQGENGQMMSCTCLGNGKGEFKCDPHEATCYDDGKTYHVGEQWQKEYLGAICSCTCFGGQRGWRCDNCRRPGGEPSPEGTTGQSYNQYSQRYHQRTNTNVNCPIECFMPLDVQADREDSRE

Key:
[1] = target: purified human fibronectin (hFn), from human plasma (human) (UniProt P02751); experiment: ELISA, coated fibronectin species
[2] = target: purified human fibronectin (hFn), from human plasma (human) (UniProt P02751); experiment: ELISA, coated fibronectin

- binding [1]: binds
- binding [2]: binds
B1: recombinant human uteroglobin (ligand)
chain: EICPSFQRVIETLLMDTPSSYEAAMELFSPDQDMREAGAQLKKLVDTLPQKPRESIIKLMEKIAQSSLCN

No constants are given. Whether binding was seen depends on the method and setting. Binding calls can cover weak binding; strength is not graded here.
